PubChem BioAssay AID686943 – Drosophila RNAi Screening Center, 2013

- Screen: 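Search across the genome for regulators of signalling from receptor tyrosine kinase to ERK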 (primary screen)
- Cell system: Drosophila S2R+ haemocyte-like cells expressing YFP-tagged ERK (Rolled)
- Knock-down reagent: long dsRNA against Drosophila genes
- Challenge: insulin stimulation versus unstimulated cells; dose and duration not given
- Detection: 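Antibody staining for doubly phosphorylated ERK divided by ERK-YFP signal, as plate z-scores, in insulin-treated and untreated cells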
- Reading the numbers: replicate 1, z-score of dpERK with insulin and replicate 2, z-score of dpERK with insulin: higher = more active ERK per ERK-YFP after insulin; replicate 1, z-score of dpERK under basal conditions: higher = more basal active ERK per ERK-YFP; replicate 1, z-score of ERK-YFP with insulin: higher = more YFP-tagged ERK signal
The deposit covers about 23,000 reagents; below is a random part of those with a known target gene and a result. 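Extra replicates exist only for a retested subset of genes; insulin dose and duration not given; both raised and lowered dpERK matter.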 A plus sign joins genes that one reagent is predicted to hit. Not given: the amount of reagent, the time to read-out.

The opening 3 records as a preview:
target gene	DRSC id	replicate 1, z-score of dpERK with insulin	replicate 2, z-score of dpERK with insulin	replicate 1, z-score of dpERK under basal conditions	replicate 1, z-score of ERK-YFP with insulin
CG12769	DRSC06167	0.51	0.02	1.53	0.47
CG7990	DRSC19296	-0.22	0.37	0.58	0.12
CG7990	DRSC20069	0.38	0.84	-2.22	0.74

The list itself, from the start:
target gene	DRSC id	replicate 1, z-score of dpERK with insulin	replicate 2, z-score of dpERK with insulin	replicate 1, z-score of dpERK under basal conditions	replicate 1, z-score of ERK-YFP with insulin
CG12769	DRSC06167	0.51	0.02	1.53	0.47
CG7990	DRSC19296	-0.22	0.37	0.58	0.12
CG7990	DRSC20069	0.38	0.84	-2.22	0.74
su(f) (suppressor of forked)	DRSC20907	1.79	1.45	0.72	-3.33
EAChm (Enhancer of Acetyltransferase Chameau)	DRSC10010	0.18	-0.45	1.19	0.76
CG33255 (retired record) + CR42842 + hpRNA:CR32205 + 1 more	DRSC09617	0.49	0.22	-1	-0.08
gfzf (GST-containing FLYWCH zinc-finger protein)	DRSC12506	-3.19	-1.48	0.88	1.89
gfzf (GST-containing FLYWCH zinc-finger protein)	DRSC21874	-0.54	-0.94	1.43	0.76
Naprt (Nicotinate phosphoribosyltransferase)	DRSC00630	-0.36	-0.86	-0.5	0.22
CG17917	DRSC12570	0.04	0.47	0.58	0.49
CG4409	DRSC06869	-0.19	-0.03	1.62	-0.17
Vtld + CG42529	DRSC10102	0.74	0.24	-0.21	-0.02
dmt (dalmatian)	DRSC16932	-1.29	-1.67	-0.61	-3.85
CG31810	DRSC01560	0.61	-0.01	0.83	0.9
CG17249	DRSC08517	0.19	0.01	-0.09	0.21
Ak2 (Adenylate kinase 2)	DRSC04043	-2.08	-0.93	-0.96	0.39
lap (like-AP180)	DRSC12628	0.61	0.23	-0.7	-1.44
CG43091	DRSC13571	1.2	-0.49	-0.75	0.38
ACXA (Adenylyl cyclase X A)	DRSC00844	0.36	0.03	-0.24	-0.28
Ir56b (Ionotropic receptor 56b)	DRSC06543	0	0.11	-0.64	0
Est-Q (Esterase Q)	DRSC11835	-0.1	0.48	-0.99	0.03
tfc (triforce)	DRSC07953	-0.33	-0.64	0.04	0.22
tfc (triforce)	DRSC07954	-0.68	-0.3	-0.57	0.43
tfc (triforce)	DRSC08626	0.5	-0.25	0.11	-0.22
tfc (triforce)	DRSC21704	0	-0.1	-0.21	0.64
CG15084	DRSC06515	0.2	0.52	-0.16	0.42
CG15084	DRSC21403	0.03	-0.08	-0.9	0.02
CG31496	DRSC12547	0.65	1.41	1.67	0.27
CG30020	DRSC06252	-0.58	-0.72	0.78	1.93
CG30020	DRSC06730	-0.35	0.38	0.36	0.94
Or45b (Odorant receptor 45b)	DRSC07488	0.65	0.14	0.31	-0.19
CG11249	DRSC11645	-0.51	-0.19	-0.49	0.11
CG34347	DRSC14047	-0.11	0.86	0.09	0.52
CG34347	DRSC14305	1.27	-0.18	-0.02	-0.5
CG34347	DRSC15104	-0.59	-0.95	-1.65	2.31
CG34347	DRSC15105	-1.35	-6.95	-2.53	-8.27
Pih1D1 (PIH1 domain containing 1)	DRSC02897	0.93	-0.32	0.12	0.26
Start1	DRSC04384	0.56	0.85	0.65	-0.05
CG3402	DRSC08567	0.49	0.24	0.4	-0.28
